Results on 1 substance are retold here after patent US20220175729A1, “PHARMACEUTICAL USE OF CHLOROPHYLLIDE FOR CANCER THERAPY” (I-SHOU UNIVERSITY, priority 2020, published 2022).

The data set deals with MCF7 breast cancer cells. Briefly: Differential gene expression analysis by NGS, MCF7. The note with it: treated versus untreated MCF7; FIG. 7. It is filed as cell-based, human.

For the substance chlorophyllide, the “number of differentially expressed genes” value is on record as 124, the “number of negative regulated genes” value amounted to 81 and the “number of positive regulated genes” value was found to be 43.
